Experimental data published in article PMC8730727.
No constants are given. Whether binding was seen depends on the method and setting. For some assays here: Binding seen in cells or lysates may run through a third protein. Some results given as binding are weak or reduced against the parent protein; the word gives no strength. Tags and fused reporters may be left off the sequences shown.

Sequences of proteins named here, by UniProt entry; tags and fusion partners are left off. Residues count along the entry.
UniProt A0A0J9UVG7, residues 27-326: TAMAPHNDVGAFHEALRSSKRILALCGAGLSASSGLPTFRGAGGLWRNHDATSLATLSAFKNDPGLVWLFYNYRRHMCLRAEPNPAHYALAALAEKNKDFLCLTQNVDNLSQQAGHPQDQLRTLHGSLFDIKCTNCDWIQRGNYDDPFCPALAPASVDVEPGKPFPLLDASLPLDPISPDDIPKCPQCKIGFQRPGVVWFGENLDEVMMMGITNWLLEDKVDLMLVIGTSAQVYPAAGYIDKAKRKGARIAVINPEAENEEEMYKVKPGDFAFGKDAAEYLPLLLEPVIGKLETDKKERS

B1: FoDLAT-Flag (enzyme, UniProt A0A0D2Y5A7 31-457)
chain: ASFPEHQVIKMPALSPTMQAGNIGAWQKKPGDSIAPGDVLVEIETDKAQMDFEFQEEGVIAKILKDAGEKDIPVGSPIAVLVEEGTDISAFEKFSIEDAGGDAAKPAAPKKEEKSESKSESASAPEPTPEPQQYQSQGRLQTALDRLPNISASAKRLAREKGISIDGLKGTGKNGQITEEDVKKAISSPAASSAPSATYEDIPISGMRKTIANRLVESTQTNPHFYVTSSISVSKLLKLRQALNSSADGKYKLSVNDFLIKAIAVASRKVPQVNSSWRDGNIRQFNNVDVSVAVSTPTGLITPIVTGVEGRGLEAISSQVKSLAKKARDGKLKPEEYQGGTISISNMGMNPAVDHFTAVINPPQAAILAVGTTKKVAIPAENEAGVEFDDQITLTASFDHKVVDGAVGAEWLKELKQVLENPLELLL

Columns and labels:
[1] = biological target: T1, FoDLAT-MBP fusion protein (Fusarium oxysporum f. sp. lycopersici strain 4287); assay: pull-down; 1 µg FoSir5-His mixed with 1 µg MBP or MBP-FoDLAT, 50 mM HEPES pH 7.5, 1 mM EDTA, 150 mM NaCl, 0.5 mM DTT, 0.8% glycerol, room temperature 1 hr; amylose resin; blot with anti-MBP and anti-His; both purified
T1 sequence (chain, crotonyl-lysine at K148 detected on the protein from E. coli (share not stated)): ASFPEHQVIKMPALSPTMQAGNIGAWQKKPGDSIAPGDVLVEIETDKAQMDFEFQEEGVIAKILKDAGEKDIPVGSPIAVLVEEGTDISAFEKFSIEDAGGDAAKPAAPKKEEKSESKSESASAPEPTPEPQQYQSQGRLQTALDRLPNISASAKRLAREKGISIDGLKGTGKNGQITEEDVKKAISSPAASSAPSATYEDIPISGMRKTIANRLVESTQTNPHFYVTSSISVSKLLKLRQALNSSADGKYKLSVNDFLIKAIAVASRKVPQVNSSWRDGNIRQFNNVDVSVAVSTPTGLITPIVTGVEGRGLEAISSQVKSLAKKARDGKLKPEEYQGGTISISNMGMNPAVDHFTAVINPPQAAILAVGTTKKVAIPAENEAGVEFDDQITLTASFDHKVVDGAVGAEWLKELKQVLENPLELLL

[2] = biological target: FoSir5-GFP (Fusarium oxysporum f. sp. lycopersici strain 4287); assay: co-IP; cell extracts of F. oxysporum transformants co-expressing FoDLAT-Flag with GFP or FoSir5-GFP; anti-GFP agarose; blot with anti-Flag and anti-GFP

Molecule	binding [1]	binding [2]
FoSir5-His (from UniProt A0A0J9UVG7 27-326) (enzyme)	binds	
B1		binds
